Experimental data: PubChem BioAssay AID1053208 (Peter MacCallum Cancer Centre, 2014)
Assay: 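Synthetic lethal interactions between gene loss and doxorubicin in osteosarcoma cells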 (primary screen). Cells: mouse osteosarcoma cells, early-passage culture from an engineered mouse model of fibroblastic bone tumour. Reagents: siRNA pool against mouse genes, 40 nM. Time to read-out: about 120 h (48 h before drug, then 72 h with drug). Conditions: doxorubicin 100 nM for 72 h, roughly 30-40% inhibitory dose. Read-out: 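Viability read as ATP luminescence after 72 h of 100 nM doxorubicin or none, duplicate wells averaged, scaled to non-targeting siRNA, then expressed as robust z-scores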. Direction: viability z-score with doxorubicin and doxorubicin viability vs non-targeting: higher = more viable cells under doxorubicin; viability z-score without drug: higher = more viable cells with knock-down alone; z-score of drug to no-drug ratio: higher = less drug sensitisation by knock-down. Call rule: 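a pool counts as active when its viability z-score with doxorubicin is -2 or below and its z-score without drug lies between -2 and 2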.
Shown is a random part of about 17,000 deposited reagents. Over the whole deposit, 788 (4.7%) were called active. 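Calls rest on z-score classes alone; an extra cut-off of viability at most 70% of control was not applied to them.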 Reagent sequences are not shown.

Gene | combined z-score class | viability z-score with doxorubicin | viability z-score without drug | z-score of drug to no-drug ratio | doxorubicin viability vs non-targeting | Outcome
Slc2a4 (GeneID 20528) | no change with or without drug | -0.56 | 0.51 | -0.79 | 0.89 | inactive
Gemin4 (GeneID 276919) | no change with or without drug | 0.45 | 1.52 | -0.45 | 0.98 | inactive
Rnf183 (GeneID 76072) | no change with or without drug | -0.67 | -0.84 | 0 | 0.88 | inactive
Akap13 (GeneID 75547) | no change with or without drug | -1.24 | -0.84 | -0.67 | 0.83 | inactive
Abat (GeneID 268860) | no change with or without drug | -1.35 | 1.52 | -2.14 | 0.82 | inactive
Reg3d (GeneID 30053) | no change with or without drug | 0.11 | -0.51 | 0.56 | 0.95 | inactive
Pear1 (GeneID 73182) | no change with or without drug | -1.57 | -0.84 | -1.01 | 0.8 | inactive
Tmprss12 (GeneID 75002) | no change with or without drug | -1.35 | -0.34 | -1.12 | 0.82 | inactive
Rab12 (GeneID 19328) | no change with or without drug | 1.12 | 0 | 1.24 | 1.04 | inactive
Ifna12 (GeneID 242519) | no change with or without drug | 1.24 | 1.35 | 0.45 | 1.05 | inactive
Kcnj16 (GeneID 16517) | no change with or without drug | -0.11 | 0.17 | -0.11 | 0.93 | inactive

Ordered by “viability z-score with doxorubicin” (lowest first): 2 of the entries above.
Gene | combined z-score class | viability z-score with doxorubicin | viability z-score without drug | z-score of drug to no-drug ratio | doxorubicin viability vs non-targeting | Outcome
Pear1 (GeneID 73182) | no change with or without drug | -1.57 | -0.84 | -1.01 | 0.8 | inactive
Reg3d (GeneID 30053) | no change with or without drug | 0.11 | -0.51 | 0.56 | 0.95 | inactive

The results go on.
Gene | combined z-score class | viability z-score with doxorubicin | viability z-score without drug | z-score of drug to no-drug ratio | doxorubicin viability vs non-targeting | Outcome
Gdpd4 (GeneID 233537) | no change with or without drug | -0.56 | 0 | -0.45 | 0.89 | inactive
Rpl24 (GeneID 68193) | no change with or without drug | 0.34 | 1.35 | -0.45 | 0.97 | inactive
Dppa1 (GeneID 347708) | no change with or without drug | 0.9 | 1.18 | 0.22 | 1.02 | inactive
Prrc2b (GeneID 227723) | no change with or without drug | 1.35 | 1.18 | 0.67 | 1.06 | inactive
Gcdh (GeneID 270076) | no change with or without drug | 0.56 | -0.51 | 1.12 | 0.99 | inactive
Ryk (GeneID 20187) | no change with or without drug | 0.34 | -0.17 | 0.56 | 0.97 | inactive
Map2k5 (GeneID 23938) | high cell count without drug only | 1.69 | 2.87 | -0.11 | 1.09 | inactive
Lmf1 (GeneID 76483) | no change with or without drug | -0.67 | 1.18 | -1.35 | 0.88 | inactive
Nectin4 (GeneID 71740) | no change with or without drug | -1.57 | 0 | -1.57 | 0.8 | inactive
Cry1 (GeneID 12952) | no change with or without drug | 1.12 | 0.17 | 1.12 | 1.04 | inactive
9930111J21Rik2 (GeneID 245240) | high cell count with and without drug | 2.92 | 2.87 | 1.01 | 1.2 | inactive
Or52m1 (GeneID 258322) | no change with or without drug | -0.11 | -0.84 | 0.56 | 0.93 | inactive
Zfp764 (GeneID 233893) | no change with or without drug | -0.45 | 0.51 | -0.67 | 0.9 | inactive
Krt1 (GeneID 16678) | no change with or without drug | -0.67 | 1.18 | -1.35 | 0.88 | inactive
Acy3 (GeneID 71670) | low cell count with doxorubicin only | -2.25 | -1.85 | -1.12 | 0.74 | active
Prl3d1 (GeneID 18775) | no change with or without drug | -0.67 | -0.17 | -0.45 | 0.88 | inactive
Atp2a3 (GeneID 53313) | no change with or without drug | -0.9 | -0.84 | -0.22 | 0.86 | inactive
Hmgn5 (GeneID 50887) | no change with or without drug | -1.12 | -0.51 | -0.79 | 0.84 | inactive
Nelfa (GeneID 24116) | no change with or without drug | -1.57 | -0.84 | -1.01 | 0.8 | inactive
Pdcd1lg2 (GeneID 58205) | high cell count without drug only | 1.69 | 2.02 | 0.45 | 1.09 | inactive
Arr3 (GeneID 170735) | no change with or without drug | 1.24 | -0.17 | 1.57 | 1.05 | inactive
Dnajb3 (GeneID 15504) | no change with or without drug | -1.35 | 1.52 | -2.14 | 0.82 | inactive
B530045E10Rik (GeneID 320966) | no change with or without drug | -0.22 | -0.17 | 0 | 0.92 | inactive
